# In PubChem BioAssay AID547 (Emory University Molecular Libraries Screening Center, 2006):
# Shown are results outside the selection of hits, which stands elsewhere. Active and inactive are the calls of the source. No rule for the calls is given here.
# Molecular target: Chaperone protein DnaK (Escherichia coli (strain K12)) (UniProt P0A6Y8)
# Assay: E. coli DnaK chaperone inhibitors, primary screen, luminescence, E. coli K12 (AID 547);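 also: tested at 10 µM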
# Conditions: DnaK chaperone assay, luminescence read-out; stronger effect = lower value
row,SMILES,luminescence
1,CN1C2CCC1CC(OC(=O)C(O)c1ccccc1)C2 (stereo unspecified),inactive: 3e+06 cps
